Results published in PubChem BioAssay AID316 (DTP/NCI, 2004).
The list does not hold the whole screen: it is rich in T/C values a quarter to a half above the control, in often repeated tests (any T/C) and in doses without a T/C. Other doses and runs of a compound stand elsewhere. T/C is the treated group as % of the vehicle group. Some doses have a count of surviving animals in place of a T/C: the source holds a T/C of zero for them, seemingly a mark for toxic or unscored doses. Some doses without a T/C left all or most animals alive at the check, yet need not have been tolerated: the source hardly ever lists a survival T/C far under the control, and the zero likely stands for such cases as well. Counts of survivors are from the toxicity check (mostly the fifth day) where no day follows; animals may have died later. Schedules are NCI's codes, read here as Q, the interval in days (D) or hours (H), X, the number of doses. For survival time, this PubChem deposit counts one and a half times the control or more as active, and values a quarter to a half above the control carry no call in these data; other NCI protocols may use other cut-offs. Some T/C values carry the count of animals alive at the toxicity check (mostly the fifth day); where none is given, no animal had died by that day. Some entries were tested several times; their values stand side by side, smallest first. Numbered stars: 1 amine (or outer) side, 2 acyl side, 3 side chain; on linkers, the order of the positions; unused ones are H or OH. Bridge positions count the residues as written; N and C are the ends. Square brackets hold non-standard residues; d marks the D form. Peptide text beside a SMILES is read from it. I, II: the chains in the order shown. Actinocin(9to1) = Cc1c2oc3c(C)ccc(C(=O)[*:1])c3nc-2c(C(=O)[*:2])c(N)c1=O; aThr = C[C@H](O)[C@H](N)C(=O)O; NMeV = CN[C@H](C(=O)O)C(C)C; Sar = CNCC(=O)O

Test system: P1534 leukemia ip, CD2F1 mice, survival T/C
Test: NCI In Vivo Anticancer Drug Screen. Data for tumor model P1534 Leukemia (intraperitoneal) in CD2F1 (CDF1) mice
Details: higher T/C = longer survival
Protocol: The antitumor activity of compounds was measured in mice bearing transplantable tumors. Survival or tumor size were measured and the results are expressed as the measurement made in the treated group (T) divided by the measurement made in the vehicle treated control group (C). The tumor model used in this assay is P1534 Leukemia (intraperitoneal) in CD2F1 (CDF1) mice

[1] = T/C endpoint: mean survival time, dose: 40.0 mg/kg/injection, schedule: Q01DX010 (ip), vehicle: saline
[2] = T/C endpoint: mean survival time, dose: 50.0 mg/kg/injection, schedule: Q01DX010 (sc), vehicle: steroid suspending solution
[3] = T/C endpoint: mean survival time, dose: 100.0 mg/kg/injection, schedule: Q01DX010 (sc), vehicle: steroid suspending solution
[4] = T/C endpoint: mean survival time, dose: 50.0 mg/kg/injection, schedule: Q01DX010 (ip), vehicle: saline
[5] = T/C endpoint: mean survival time, dose: 100.0 mg/kg/injection, schedule: Q01DX010 (ip), vehicle: saline
[6] = T/C endpoint: mean survival time, dose: 10.0 mg/kg/injection, schedule: Q01DX010 (ip), vehicle: saline
[7] = T/C endpoint: mean survival time, dose: 20.0 mg/kg/injection, schedule: Q01DX010 (ip), vehicle: saline
[8] = T/C endpoint: mean survival time, dose: 400.0 mg/kg/injection, schedule: Q01DX010 (ip), vehicle: saline
[9] = T/C endpoint: mean survival time, dose: 6.0 micrograms/kg/injection, schedule: Q01DX010 (ip), vehicle: other
[10] = T/C endpoint: mean survival time, dose: 25.0 micrograms/kg/injection, schedule: Q01DX010 (ip), vehicle: other
[11] = T/C endpoint: mean survival time, dose: 50.0 micrograms/kg/injection, schedule: Q01DX010 (ip), vehicle: other
[12] = T/C endpoint: mean survival time, dose: 100.0 micrograms/kg/injection, schedule: Q01DX010 (ip), vehicle: other
[13] = T/C endpoint: mean survival time, dose: 200.0 mg/kg/injection, schedule: Q01DX010 (ip), vehicle: saline
[14] = T/C endpoint: mean survival time, dose: 5.0 mg/kg/injection, schedule: Q01DX010 (ip), vehicle: saline

## O=C(NO)c1cccnc1
T/C endpoint: mean survival time, dose: 400.0 mg/kg/injection, schedule: Q01DX010 (ip), vehicle: water
  T/C: 129 % of control
T/C endpoint: mean survival time, dose: 900.0 mg/kg/injection, schedule: Q01DX010 (ip), vehicle: water
  survivor count: 1 of 6

## C/C=C1/CN(C)C2Cc3c([nH]c4ccccc34)C(c3cc4[nH]c5c(c4cc3OC)CCN3CC4CC(C(C)O)C3C5(C(=O)OC)C4)CC1C2C(=O)OC (configuration not stated)
T/C endpoint: mean survival time, dose: 20.0 mg/kg/injection, schedule: Q01DX010 (ip), vehicle: other
  survivor count: 3 of 6
T/C endpoint: mean survival time, dose: 30.0 mg/kg/injection, schedule: Q01DX010 (ip), vehicle: other
  survivor count: 0 of 6
T/C endpoint: mean survival time, dose: 40.0 mg/kg/injection, schedule: Q01DX010 (ip), vehicle: other
  survivor count: 0 of 6
T/C endpoint: mean survival time, dose: 60.0 mg/kg/injection, schedule: Q01DX010 (ip), vehicle: other
  survivor count: 0 of 6

## CC(=O)OC(C)(C)/C=C/C(=O)[C@](C)(O)[C@H]1[C@H](O)C[C@@]2(C)[C@@H]3CC=C4[C@@H](C[C@H](O)C(=O)C4(C)C)[C@]3(C)C(=O)C[C@]12C
T/C endpoint: mean survival time, dose: 0.57 mg/kg/injection, schedule: Q01DX010 (ip), vehicle: saline
  survivor count: 6 of 6

## CCNc1nncs1
T/C endpoint: mean survival time, dose: 32.0 mg/kg/injection, schedule: Q01DX010 (ip), vehicle: saline
  survivor count: 6 of 6
T/C endpoint: mean survival time, dose: 64.0 mg/kg/injection, schedule: Q01DX010 (ip), vehicle: saline
  survivor count: 6 of 6

## CN(C)c1ccc(/C=C\c2ccnc3ccccc23)cc1
T/C endpoint: mean survival time, dose: 27.0 mg/kg/injection, schedule: Q01DX010 (ip), vehicle: saline
  survivor count: 6 of 6
[1]
  survivor count: 6 of 6

## CC(=O)O[C@]1(C(C)=O)CC[C@H]2[C@@H]3C[C@H](C)C4=CC(=O)C=C[C@]4(C)[C@@]3(F)[C@@H](O)C[C@@]21C
[2]
  survivor count: 6 of 6
[3]
  survivor count: 6 of 6

## COCCOC
T/C endpoint: mean survival time, dose: 1000.0 mg/kg/injection, schedule: Q01DX010 (ip), vehicle: saline
  survivor count: 6 of 6

## COc1ccc2cc3[n+](cc2c1OC)CCc1cc2c(cc1-3)OCO2
T/C endpoint: mean survival time, dose: 12.5 mg/kg/injection, schedule: Q01DX010 (ip), vehicle: saline
  survivor count: 4 of 6
T/C endpoint: mean survival time, dose: 25.0 mg/kg/injection, schedule: Q01DX010 (ip), vehicle: saline
  survivor count: 0 of 6
[4]
  survivor count: 0 of 6
[5]
  survivor count: 0 of 6

## CCCCCCCCCCCCNCCCCCCCCCCCC
T/C endpoint: mean survival time, dose: 15.0 mg/kg/injection, schedule: Q01DX010 (ip), vehicle: other
  survivor count: 1 of 6

## NNC(=O)c1cnccn1
T/C endpoint: mean survival time, dose: 60.0 mg/kg/injection, schedule: Q01DX010 (ip), vehicle: water
  T/C: 138 % of control
T/C endpoint: mean survival time, dose: 100.0 mg/kg/injection, schedule: Q01DX010 (ip), vehicle: water
  survivor count: 3 of 6
T/C endpoint: mean survival time, dose: 120.0 mg/kg/injection, schedule: Q01DX010 (ip), vehicle: water
  survivor count: 1 of 6
T/C endpoint: mean survival time, dose: 140.0 mg/kg/injection, schedule: Q01DX010 (ip), vehicle: water
  survivor count: 0 of 6

## NC(N)=NCCCC(N)C(=O)NCCCCCCNCCCCCCNC(=O)C(N)CCCN=C(N)N (configuration not stated)
[1]
  survivor count: 0 of 6

## O=c1[nH]c(=O)n(C2CC(O)C(CO)O2)cc1F (configuration not stated)
[6]
  T/C: 135 % of control
[7]
  T/C: 142 % of control
[1]
  T/C: 125 % of control
T/C endpoint: mean survival time, dose: 80.0 mg/kg/injection, schedule: Q01DX010 (ip), vehicle: saline
  survivor count: 6 of 6

## NC(Cn1ccc(=O)c(O)c1)C(=O)O (configuration not stated)
[8]
  survivor count: 6 of 6

## Cc1c2oc3c(C)ccc(C(=O)N[C@@H]4C(=O)N[C@H](C(C)C)C(=O)N5CCC[C@H]5C(=O)N(C)CC(=O)N(C)[C@@H](C(C)C)C(=O)O[C@H]4C)c3nc-2c(C(=O)N[C@@H]2C(=O)N[C@H](C(C)C)C(=O)N3CCC[C@H]3C(=O)N(C)CC(=O)N(C)[C@@H](C(C)C)C(=O)O[C@H]2C)c(N)c1=O (I: [aThr][dV]P[Sar][NMeV] / II: [aThr][dV]P[Sar][NMeV]; ester I:1-I:C, II:1-II:C; linker I:N-II:N via Actinocin(9to1))
[9]
  T/C: 97, 100, 102, 103, 110 % of control
  survivor count: 6 of 6
T/C endpoint: mean survival time, dose: 13.0 micrograms/kg/injection, schedule: Q01DX010 (ip), vehicle: other
  T/C: 87, 95, 99 [5 of 6 alive], 102, 113, 117 % of control
[10]
  T/C: 100, 106 [5 of 6 alive], 120, 124 % of control
  survivor count: 6 of 6
[11]
  T/C: 93, 98, 127, 141 % of control
  survivor count: 6 of 6
[12]
  survivor count: 6 of 6

## O=C(NCCCCC(NC(=O)OCc1ccccc1)C(=O)NCCCCCCNCCCCCCNC(=O)C(CCCCNC(=O)OCc1ccccc1)NC(=O)OCc1ccccc1)OCc1ccccc1 (configuration not stated)
[5]
  survivor count: 3 of 6

## COc1cc(-c2ccc(Nc3ccccc3C(=O)O)c(OC)c2)ccc1Nc1ccccc1C(=O)O
[4]
  survivor count: 6 of 6
[5]
  T/C: 139 % of control
  survivor count: 6 of 6
[13]
  survivor count: 3 of 6

## O=C(NCCCC(NC(=O)OCc1ccccc1)C(=O)NCCCNCCCCNCCCNC(=O)C(CCCNC(=O)OCc1ccccc1)NC(=O)OCc1ccccc1)OCc1ccccc1 (configuration not stated)
[14]
  survivor count: 6 of 6
[7]
  survivor count: 3 of 6

## C/C=C1\CN2C3C[C@H]1C(C(=O)OC)[C@H]2Cc1c3[nH]c2ccccc12 (some centres not stated)
T/C endpoint: mean survival time, dose: 60.0 mg/kg/injection, schedule: Q01DX010 (ip), vehicle: saline
  survivor count: 4 of 6

## O=CC1CO1 (configuration not stated)
T/C endpoint: mean survival time, dose: 66.0 mg/kg/injection, schedule: Q01DX010 (ip), vehicle: steroid suspending solution
  survivor count: 6 of 6
T/C endpoint: mean survival time, dose: 100.0 mg/kg/injection, schedule: Q01DX010 (ip), vehicle: steroid suspending solution
  survivor count: 6 of 6

## CS(=O)(=O)OCC(O)C(O)C(O)C(O)COS(C)(=O)=O (configuration not stated)
[8]
  T/C: 135 % of control

## Nc1nc(=S)c2[nH]cnc2[nH]1
[14]
  T/C: 137 % of control
[6]
  T/C: 131 % of control

## O=CC(NC(=O)N(CCCl)N=O)C(O)C(O)C(O)CO (configuration not stated)
T/C endpoint: median survival time, dose: 1.25 mg/kg/injection, schedule: Q01DX005 (ip), vehicle: other
  T/C: 132 % of control [4 of 6 alive]

## CC(=O)Nc1ccc(/C=N/Nc2ccc([N+](=O)[O-])cn2)cc1
T/C endpoint: mean survival time, dose: 500.0 mg/kg/injection, schedule: Q01DX010 (ip), vehicle: saline
  survivor count: 6 of 6

## Cc1cc(N(CCCl)CCCl)ccc1C=Nc1ccccc1-c1ccccc1
[13]
  survivor count: 6 of 6

## CCC12CCCN3CCc4c(n(c5ccccc45)C(O)(C(=O)OC)C1)C32 (configuration not stated)
T/C endpoint: mean survival time, dose: 15.0 mg/kg/injection, schedule: Q01DX010 (ip), vehicle: saline
  survivor count: 6 of 6

## C[N+](C)(C)c1ncnc2nc[nH]c12
T/C endpoint: mean survival time, dose: 120.0 mg/kg/injection, schedule: Q01DX010 (ip), vehicle: saline
  survivor count: 6 of 6

## C[C@]12C=CC(=O)C=C1CC[C@@H]1[C@@H]2[C@@H](O)C[C@@]2(C)[C@H]1CC[C@]2(O)C(=O)CO
[2]
  survivor count: 6 of 6
[3]
  survivor count: 6 of 6

## CC1CCC(NC(=O)N(CCCl)N=O)CC1 (configuration not stated)
T/C endpoint: median survival time, dose: 2.0 mg/kg/injection, schedule: Q01DX005 (ip), vehicle: other
  T/C: 132 % of control

## CC(=O)OCC1OC(n2ncc(=O)[nH]c2=O)C(OC(C)=O)C1OC(C)=O (configuration not stated)
T/C endpoint: mean survival time, dose: 1014.0 mg/kg/injection, schedule: Q01DX010 (ip), vehicle: saline
  survivor count: 6 of 6

## CC(=O)Nc1c(Cl)cc2c(c1Cl)Cc1cc([N+](=O)[O-])ccc1-2
T/C endpoint: mean survival time, dose: 125.0 mg/kg/injection, schedule: Q01DX010 (ip), vehicle: saline
  survivor count: 4 of 6
T/C endpoint: mean survival time, dose: 250.0 mg/kg/injection, schedule: Q01DX010 (ip), vehicle: saline
  survivor count: 6 of 6

## CCCCCCCCCCCCCCCCC(C(=O)O)C(O)(CC(=O)O)C(=O)O (configuration not stated)
[4]
  survivor count: 5 of 6
[5]
  survivor count: 0 of 6
[13]
  survivor count: 0 of 6

## COC1=C(N)C(=O)c2nc(-c3nc(C(=O)O)c(C)c(-c4ccc(OC)c(OC)c4O)c3N)ccc2C1=O
T/C endpoint: mean survival time, dose: 0.2 mg/kg/injection, schedule: Q01DX010 (ip), vehicle: saline
  survivor count: 6 of 6

## Nc1nc(N)c2nc(CNc3ccc(C(=O)NC(CCC(=O)O)C(=O)O)cc3)cnc2n1 (configuration not stated)
[12]
  T/C: 145 % of control
T/C endpoint: median survival time, dose: 0.03 mg/kg/injection, schedule: Q01DX009 (ip), vehicle: sodium bicarbonate
  T/C: 130 % of control
